Measured values from patent publication US20250154171A1, “RAS INHIBITORS” (Revolution Medicines, Inc., priority 2023, published 2025).
Some results were stated once for a whole list of compounds, not compound by compound.

The chains behind the UniProt entries cited, without tags or fusion partners. Where a name states a change or a piece, a line headed by the entry shows the natural chain unless it says otherwise. Residues count along the entry.
UniProt P01116, 1-188 isoform P01116-2 G12V: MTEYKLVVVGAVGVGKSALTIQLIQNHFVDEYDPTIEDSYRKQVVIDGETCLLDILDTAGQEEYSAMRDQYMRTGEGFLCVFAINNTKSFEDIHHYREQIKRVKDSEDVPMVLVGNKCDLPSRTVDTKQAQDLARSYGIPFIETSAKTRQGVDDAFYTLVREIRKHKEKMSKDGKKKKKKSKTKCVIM
UniProt P62937, whole entry: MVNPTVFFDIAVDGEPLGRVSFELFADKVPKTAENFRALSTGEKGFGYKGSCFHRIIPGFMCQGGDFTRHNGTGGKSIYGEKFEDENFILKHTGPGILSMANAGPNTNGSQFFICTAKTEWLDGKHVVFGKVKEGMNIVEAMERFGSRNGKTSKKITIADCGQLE

How the values were obtained:
Capan-1 (K-Ras G12V) = test: CellTiter-Glo cell viability assay, Capan-1; format: cell-based, human; conditions: 5-day treatment, Capan-1 versus A375
K-RasG12V = K-RasG12V (Homo sapiens, UniProt P01116+P62937, G12V); test: Disruption of BRAF RBD interaction with K-Ras (TR-FRET / MOA assay), K-RasG12V; format: biochemical; conditions: TR-FRET with cyclophilin A and GST-BRAF RBD, read-out: IC50 with respect to K-RasG12V (disruption of BRAF RBD interaction)

SMILES | decrease in cell viability with respect to KRAS G12V (Capan-1) versus wild-type KRAS (A375) (Capan-1 (K-Ras G12V)) | IC50 (K-RasG12V)
CCO[C@@H]1c2nc(cs2)-c2ccc3c(c2)c(c(-c2cc(N4CCN(C5CC5)CC4)cnc2[C@H](C)OC)n3CCO[C@H]2CCOC(C)(C)C2)CC(C)(C)COC(=O)[C@@H]2CCCN(N2)C(=O)[C@H]1NC(=O)[C@@H]1[C@@H](C)[C@H]1c1cocn1 (racemic) [Example A585] | greater decrease in cell viability | < 1 µM
CCO[C@@H]1c2nc(cs2)-c2ccc3c(c2)c(c(-c2cc(N4CCN(C5CC5)CC4)cnc2[C@H](C)OC)n3CCO[C@@H]2CCOC(C)(C)C2)CC(C)(C)COC(=O)[C@@H]2CCCN(N2)C(=O)[C@H]1NC(=O)[C@@H]1[C@@H](C)[C@H]1c1cocn1 (racemic) [Example A586] | greater decrease in cell viability | < 1 µM
CCO[C@@H]1c2nc(cs2)-c2ccc3c(c2)c(c(-c2cc(N4CCN(C5CC5)CC4)cnc2[C@H](C)OC)n3CCOC2CCOCC2)CC(C)(C)COC(=O)[C@@H]2CCCN(N2)C(=O)[C@H]1NC(=O)C12CC(C1)C(C)O2 (mixture of isomers) [Example A590] | greater decrease in cell viability | < 1 µM
CO[C@@H](C)c1ncccc1-c1c2c3cc(ccc3n1CCOC1CCOCC1)-c1csc(n1)[C@@H](N1CCOC[C@@H]1C#N)[C@H](NC(=O)[C@@H]1[C@@H](C)[C@H]1c1ccncn1)C(=O)N1CCC[C@H](N1)C(=O)OCC(C)(C)C2 (racemic) [Example A594] | greater decrease in cell viability | < 1 µM
CO[C@@H](C)c1ncc(N2CCN(C3CC3)CC2)cc1-c1c2c3cc(ccc3n1CCOC1CCOCC1)-c1nc(co1)[C@@H](N1CCCC1)[C@H](NC(=O)[C@@H]1[C@@H](C)[C@H]1c1ccncn1)C(=O)N1N[C@H](C(=O)OCC(C)(C)C2)C2CC1C2 (racemic) [Example A595] | greater decrease in cell viability | < 1 µM
CCO[C@@H]1c2nc(cs2)-c2ccc3c(c2)c(c(-c2cc(N4CCN(C5CC5)CC4)cnc2[C@H](C)OC)n3CCO[C@@H]2CCCOC2)CC(C)(C)COC(=O)[C@@H]2CCCN(N2)C(=O)[C@H]1NC(=O)[C@@H]1[C@@H](C)[C@H]1c1cocn1 (racemic) [Example A597] | greater decrease in cell viability | < 1 µM
CO[C@@H](C)c1ncc(N2CCN(C3CC3)CC2)cc1-c1c2c3cc(ccc3n1CCOC1CCCOC1)-c1csc(n1)[C@@H](N1CCOCC1)[C@H](NC(=O)[C@@H]1[C@@H](C)[C@H]1c1cocn1)C(=O)N1CCC[C@H](N1)C(=O)OCC(C)(C)C2 (mixture of isomers) [Example A599] | greater decrease in cell viability | < 1 µM
CCO[C@@H]1c2nc(cs2)-c2ccc3c(c2)c(c(-c2cc(N4CCN(C5CC5)CC4)cnc2[C@H](C)OC)n3CCO[C@H]2CCCOC2)CC(C)(C)COC(=O)[C@@H]2CCCN(N2)C(=O)[C@H]1NC(=O)[C@@H]1[C@@H](C)[C@H]1c1cocn1 (racemic) [Example A600] | greater decrease in cell viability | < 1 µM
CCO[C@@H]1c2nc(cs2)-c2ccc3c(c2)c(c(-c2cc(N4CCN(C5CC5)CC4)cnc2[C@H](C)OC)n3CCOC2CCOCC2)CC(C)(C)COC(=O)[C@H]2NN(C(=O)[C@H]1NC(=O)[C@@H]1[C@@H](C)[C@H]1c1ccncn1)C1CC2C1 (racemic) [Example A601] | greater decrease in cell viability | < 1 µM
CO[C@@H](C)c1ncc(N2CCN(C3CC3)CC2)cc1-c1c2c3cc(ccc3n1CCOC1CCOCC1)-c1csc(n1)[C@@H](N1CCOCC1)[C@H](NC(=O)[C@H]1[C@H](C)[C@@H]1c1ncccc1F)C(=O)N1CCC[C@H](N1)C(=O)OCC(C)(C)C2 (racemic) [Example A602] | greater decrease in cell viability | < 1 µM
CO[C@@H](C)c1ncc(N2CCN(C3CC3)CC2)cc1-c1c2c3cc(ccc3n1CCOC1CCOCC1)-c1csc(n1)[C@@H](N1CCOCC1)[C@H](NC(=O)[C@@H]1[C@@H](C)[C@H]1c1ncccc1F)C(=O)N1CCC[C@H](N1)C(=O)OCC(C)(C)C2 (racemic) [Example A603] | greater decrease in cell viability | < 1 µM
CO[C@@H](C)c1ncc(N2CCN(C3CC3)CC2)cc1-c1c2c3cc(ccc3n1CCOC1CCOCC1)-c1csc(n1)[C@@H](N1CCOCC1)[C@H](NC(=O)[C@H]1[C@H](C)[C@@H]1c1ccc(F)cn1)C(=O)N1CCC[C@H](N1)C(=O)OCC(C)(C)C2 (racemic) [Example A604] | greater decrease in cell viability | < 1 µM
CO[C@@H](C)c1ncc(N2CCN(C3CC3)CC2)cc1-c1c2c3cc(ccc3n1CCOC1CCOCC1)-c1csc(n1)[C@@H](N1CCOCC1)[C@H](NC(=O)[C@H]1[C@@H](C)[C@H]1c1ccc(F)cn1)C(=O)N1CCC[C@H](N1)C(=O)OCC(C)(C)C2 (racemic) [Example A605] | greater decrease in cell viability | < 1 µM
CO[C@@H](C)c1ncc(N2CCN(C3CC3)CC2)cc1-c1c2c3cc(ccc3n1CCOC1CCOCC1)-c1csc(n1)[C@@H](N1CCCC1)[C@H](NC(=O)[C@H]1[C@H](C)[C@@H]1c1coc(C)n1)C(=O)N1CCC[C@H](N1)C(=O)OCC(C)(C)C2 (racemic) [Example A608] | greater decrease in cell viability | < 1 µM
CO[C@@H](C)c1ncc(N2CCN(C3CC3)CC2)cc1-c1c2c3cc(ccc3n1CCOC1CCOCC1)-c1csc(n1)[C@@H](N1CC[C@H](F)C1)[C@H](NC(=O)N1CC[C@H]1C)C(=O)N1N[C@H](C(=O)OCC(C)(C)C2)C2CC1C2 (racemic) [Example A621] | greater decrease in cell viability | < 1 µM
CCO[C@@H]1c2nc(cs2)-c2ccc3c(c2)c(c(-c2cc(N4CCN(C5CC5)CC4)cnc2[C@H](C)OC)n3CCOC2CCOCC2)CC(C)(C)COC(=O)[C@H]2NN(C(=O)[C@H]1NC(=O)[C@@H]1CCO1)C1CC2C1 (racemic) [Example A622] | greater decrease in cell viability | < 1 µM
CO[C@@H](C)c1ncc(N2CCN(C3CC3)CC2)cc1-c1c2c3cc(ccc3n1CCO[C@H]1CCOC[C@H]1F)-c1csc(n1)C(N1CCOCC1)[C@H](NC(=O)[C@@H]1[C@@H](C)[C@H]1c1cocn1)C(=O)N1CCC[C@H](N1)C(=O)OCC(C)(C)C2 (mixture of isomers) [Example A623] | greater decrease in cell viability | < 1 µM
CO[C@@H](C)c1ncc(N2CCN(C3CC3)CC2)cc1-c1c2c3cc(ccc3n1CCO[C@@H]1CCOC[C@@H]1F)-c1csc(n1)[C@@H](N1CCOCC1)[C@H](NC(=O)[C@@H]1[C@@H](C)[C@H]1c1cocn1)C(=O)N1CCC[C@H](N1)C(=O)OCC(C)(C)C2 (racemic) [Example A624] | greater decrease in cell viability | < 1 µM
CO[C@@H](C)c1ncc(N2CCN(C3CC3)CC2)cc1-c1c2c3cc(ccc3n1CCOC1CCOCC1)-c1csc(n1)[C@@H](N1CCOCC1)[C@H](NC(=O)N1C[C@@H]3COCC[C@@H]31)C(=O)N1CCC[C@H](N1)C(=O)OCC(C)(C)C2 (racemic) [Example A625] | greater decrease in cell viability | < 1 µM
CCO[C@@H]1c2nc(cs2)-c2ccc3c(c2)c(c(-c2cc(N4CCN(C5CC5)CC4)cnc2[C@H](C)OC)n3CCOC2CCOCC2)CC(C)(C)COC(=O)[C@@H]2CCCN(N2)C(=O)[C@H]1NC(=O)[C@@H]1[C@@H](C)[C@H]1c1ccncn1 (racemic) [Example A626] | greater decrease in cell viability | < 1 µM
CO[C@@H](C)c1ncc(N2CCN(C3CC3)CC2)cc1-c1c2c3cc(ccc3n1CCOC1CCOCC1)-c1csc(n1)[C@@H](OCC(F)F)[C@H](NC(=O)N1CC[C@H]1C)C(=O)N1N[C@H](C(=O)OCC(C)(C)C2)C2CC1C2 (racemic) [Example A631] | greater decrease in cell viability | < 1 µM
CO[C@@H](C)c1ncc(N2CCN(C3CC3)CC2)cc1-c1c2c3cc(ccc3n1CCOC1CCOCC1)-c1csc(n1)[C@@H](N1CCCC1)[C@H](NC(=O)[C@@H]1[C@@H](C)[C@H]1c1ccncn1)C(=O)N1CCC[C@H](N1)C(=O)OCC(C)(C)C2 (racemic) [Example A632] | greater decrease in cell viability | < 1 µM
CO[C@@H](C)c1ncc(N2CCN(C3CC3)CC2)cc1-c1c2c3cc(ccc3n1CCOC1CCOCC1)-c1csc(n1)[C@@H](N1CCOCC1)[C@H](NC(=O)[C@]1(C#N)CCCO1)C(=O)N1CCC[C@H](N1)C(=O)OCC(C)(C)C2 (racemic) [Example A633] | greater decrease in cell viability | < 1 µM
CO[C@@H](C)c1ncc(N2CCN(C3CC3)CC2)cc1-c1c2c3cc(ccc3n1CCOC1CCOCC1)-c1csc(n1)[C@@H](N1CCOCC1)[C@H](NC(=O)[C@@]1(C#N)CCCO1)C(=O)N1CCC[C@H](N1)C(=O)OCC(C)(C)C2 (racemic) [Example A634] | greater decrease in cell viability | < 1 µM
CO[C@@H](C)c1ncc(N2CCN(C3CC3)CC2)cc1-c1c2c3cc(ccc3n1CCOC1CCOCC1)-c1csc(n1)[C@@H](N1CCCC1)[C@H](NC(=O)C13CCC(CC1)O3)C(=O)N1CCC[C@H](N1)C(=O)OCC(C)(C)C2 (racemic) [Example A635] | greater decrease in cell viability | < 1 µM
